This data set can be described thus: Drug level in rat hepatocytes treated with ethyl 8-(2-amino-6-((R)-1-(4-chloro-2-(3-methyl-1H-pyrazol-1-yl)phenyl)-2,2,2-trifluoroethoxy)pyrimidin-4-yl)-2,8-diazaspiro[4.5]decane-3-carboxylate. It is filed as ADME, cell-based, Hepatocyte.

Structures are written as SMILES.

`Cc1ccn(-c2cc(Cl)ccc2[C@@H](Oc2cc(N3CCC4(CC3)CNC(C(=O)O)C4)nc(N)n2)C(F)(F)F)n1` (stereo partly specified): the Drug metabolism result is “Metabolite_Detected”.

The record behind these values is ChEMBL document CHEMBL4000220, “Optimization of spirocyclic proline tryptophan hydroxylase-1 inhibitors” (Bioorg Med Chem Lett, 2017).
